Source: PubChem BioAssay AID1224830 (NIAID, 2016)

Aim: 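Host factors that control LPS-induced TNF expression in human macrophages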 (primary screen)
Cells: human THP-1 monocytic leukaemia cells, TNF dual-luciferase reporter clone, PMA-differentiated to macrophage-like cells
Reagents: siRNA pool against human genes, 50 nM
Timing: LPS for 4 h, given about 3 days after siRNA transfection
Treatment: bacterial LPS (TLR4 ligand), 10 ng/ml
Measured: 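Ratio of firefly to renilla light, scaled to the plate median and expressed as a robust z-score per replicate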
Reading the numbers: TNF reporter robust z-score: higher = stronger TNF reporter response to LPS
Call rule: 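a well is active when its z-score exceeds 2.8 or falls below -1.5; control wells carry no call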
Here is an unselected part of about 18,000 reagents tested. About 2,900 of them (16%) were called active. 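Calls are made per well; low scores hint the gene aids the LPS response, high scores that it dampens it.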 Repeated entries: four replicate wells of each siRNA pool. No sequences are given here.

gene symbol,TNF reporter robust z-score,outcome
SLC36A1,-0.94,inactive
SLC36A1,-0.59,inactive
SLC36A1,-0.23,inactive
SLC36A1,-0.36,inactive
NACA (nascent polypeptide associated complex subunit alpha),-0.34,inactive
NACA (nascent polypeptide associated complex subunit alpha),0.2,inactive
NACA (nascent polypeptide associated complex subunit alpha),0.15,inactive
NACA (nascent polypeptide associated complex subunit alpha),-0.24,inactive
CRYGC (crystallin gamma C),1.66,inactive
CRYGC (crystallin gamma C),1.6,inactive
CRYGC (crystallin gamma C),1.44,inactive
CRYGC (crystallin gamma C),2.43,inactive
DRC12 (dynein regulatory complex subunit 12 homolog),0.4,inactive
DRC12 (dynein regulatory complex subunit 12 homolog),2.89,active
DRC12 (dynein regulatory complex subunit 12 homolog),0.78,inactive
DRC12 (dynein regulatory complex subunit 12 homolog),1.84,inactive
HSPD1 (heat shock protein family D (Hsp60) member 1),0,inactive
HSPD1 (heat shock protein family D (Hsp60) member 1),0.08,inactive
HSPD1 (heat shock protein family D (Hsp60) member 1),-1.15,inactive
HSPD1 (heat shock protein family D (Hsp60) member 1),-0.53,inactive
TSEN34 (tRNA splicing endonuclease subunit 34),-0.25,inactive
TSEN34 (tRNA splicing endonuclease subunit 34),1.49,inactive
TSEN34 (tRNA splicing endonuclease subunit 34),0.99,inactive
TSEN34 (tRNA splicing endonuclease subunit 34),1.79,inactive
PCMT1 (protein-L-isoaspartate (D-aspartate) O-methyltransferase),1.76,inactive
PCMT1 (protein-L-isoaspartate (D-aspartate) O-methyltransferase),0.26,inactive
PCMT1 (protein-L-isoaspartate (D-aspartate) O-methyltransferase),0.09,inactive
PCMT1 (protein-L-isoaspartate (D-aspartate) O-methyltransferase),1.13,inactive
MIOX (myo-inositol oxygenase),0.87,inactive
MIOX (myo-inositol oxygenase),2.33,inactive
MIOX (myo-inositol oxygenase),0.3,inactive
MIOX (myo-inositol oxygenase),-0.15,inactive
FZD8 (frizzled class receptor 8),1.1,inactive
FZD8 (frizzled class receptor 8),-0.35,inactive
FZD8 (frizzled class receptor 8),1.14,inactive
FZD8 (frizzled class receptor 8),-0.48,inactive
"PIM3 (Pim-3 proto-oncogene, serine/threonine kinase)",-0.35,inactive
"PIM3 (Pim-3 proto-oncogene, serine/threonine kinase)",0.13,inactive
"PIM3 (Pim-3 proto-oncogene, serine/threonine kinase)",-0.56,inactive
"PIM3 (Pim-3 proto-oncogene, serine/threonine kinase)",0.35,inactive
PCSK1N (proprotein convertase subtilisin/kexin type 1 inhibitor),-1.15,inactive
PCSK1N (proprotein convertase subtilisin/kexin type 1 inhibitor),-1.02,inactive
PCSK1N (proprotein convertase subtilisin/kexin type 1 inhibitor),0,inactive
PCSK1N (proprotein convertase subtilisin/kexin type 1 inhibitor),-0.88,inactive
SSBP2 (single stranded DNA binding protein 2),-0.04,inactive
SSBP2 (single stranded DNA binding protein 2),-0.36,inactive
SSBP2 (single stranded DNA binding protein 2),-0.16,inactive
SSBP2 (single stranded DNA binding protein 2),-0.74,inactive
NUDT9 (nudix hydrolase 9),-0.05,inactive
NUDT9 (nudix hydrolase 9),1.88,inactive
NUDT9 (nudix hydrolase 9),1.72,inactive
NUDT9 (nudix hydrolase 9),1.07,inactive
BNIPL (BCL2 interacting protein like),-1.23,inactive
BNIPL (BCL2 interacting protein like),-0.2,inactive
BNIPL (BCL2 interacting protein like),-0.19,inactive
BNIPL (BCL2 interacting protein like),-0.66,inactive
UCP1 (uncoupling protein 1),0.09,inactive
UCP1 (uncoupling protein 1),0.61,inactive
UCP1 (uncoupling protein 1),-0.16,inactive
UCP1 (uncoupling protein 1),0.51,inactive
SH2D1B (SH2 domain containing 1B),0.48,inactive
SH2D1B (SH2 domain containing 1B),1.25,inactive
SH2D1B (SH2 domain containing 1B),0.89,inactive
SH2D1B (SH2 domain containing 1B),1.01,inactive
SV2A (synaptic vesicle glycoprotein 2A),-1.76,active
SV2A (synaptic vesicle glycoprotein 2A),-0.84,inactive
SV2A (synaptic vesicle glycoprotein 2A),-0.73,inactive
PTPMT1 (protein tyrosine phosphatase mitochondrial 1),0.25,inactive
PTPMT1 (protein tyrosine phosphatase mitochondrial 1),1.33,inactive
PTPMT1 (protein tyrosine phosphatase mitochondrial 1),-0.33,inactive
PTPMT1 (protein tyrosine phosphatase mitochondrial 1),-0.55,inactive
AFTPH (aftiphilin),0.21,inactive
AFTPH (aftiphilin),1.14,inactive
AFTPH (aftiphilin),1.7,inactive
AFTPH (aftiphilin),-0.75,inactive
DCTN5 (dynactin subunit 5),0.49,inactive
DCTN5 (dynactin subunit 5),-0.26,inactive
DCTN5 (dynactin subunit 5),1.83,inactive
DCTN5 (dynactin subunit 5),2.47,inactive
PIH1D2 (PIH1 domain containing 2),0.22,inactive
PIH1D2 (PIH1 domain containing 2),5.96,active
PIH1D2 (PIH1 domain containing 2),4.48,active
PIH1D2 (PIH1 domain containing 2),2.24,inactive
HOOK1 (hook microtubule tethering protein 1),1.01,inactive
HOOK1 (hook microtubule tethering protein 1),1.23,inactive
HOOK1 (hook microtubule tethering protein 1),1.93,inactive
HOOK1 (hook microtubule tethering protein 1),1.6,inactive
TMEM130 (transmembrane protein 130),0,inactive
TMEM130 (transmembrane protein 130),0.12,inactive
TMEM130 (transmembrane protein 130),-0.8,inactive
TMEM130 (transmembrane protein 130),1.11,inactive
"TLE4 (TLE family member 4, transcriptional corepressor)",0.19,inactive
"TLE4 (TLE family member 4, transcriptional corepressor)",-0.14,inactive
"TLE4 (TLE family member 4, transcriptional corepressor)",-0.13,inactive
"TLE4 (TLE family member 4, transcriptional corepressor)",-0.5,inactive
ATP5PD (ATP synthase peripheral stalk subunit d),0.05,inactive
ATP5PD (ATP synthase peripheral stalk subunit d),0.91,inactive
ATP5PD (ATP synthase peripheral stalk subunit d),-0.62,inactive
ATP5PD (ATP synthase peripheral stalk subunit d),0.22,inactive
ATP5ME (ATP synthase membrane subunit e),-0.9,inactive
ATP5ME (ATP synthase membrane subunit e),0.24,inactive
ATP5ME (ATP synthase membrane subunit e),-1.03,inactive
ATP5ME (ATP synthase membrane subunit e),0.55,inactive
SRXN1 (sulfiredoxin 1),-1.5,inactive
SRXN1 (sulfiredoxin 1),-0.61,inactive
SRXN1 (sulfiredoxin 1),-0.67,inactive
SRXN1 (sulfiredoxin 1),-1.82,active
PARP16 (poly(ADP-ribose) polymerase family member 16),-0.19,inactive
PARP16 (poly(ADP-ribose) polymerase family member 16),-0.27,inactive
PARP16 (poly(ADP-ribose) polymerase family member 16),-1.32,inactive
PARP16 (poly(ADP-ribose) polymerase family member 16),0.86,inactive
